From ChEMBL document CHEMBL4513141, “CO-ADD screening of NIH (USA) - Clinical Collection” (2021) come the findings set out here.

Molecules are shown by their SMILES. The list shows a part of the results. Entries with a potency or affinity are not part of this list.

The subject of the assay is Pseudomonas aeruginosa. The settings on record: Concentration 20 uM; ASSAY_TEST Inhibition of Bacterial Growth; detection method Absorption (OD600); MEDIA CAMHB; plate type 384well; NBS; CORNING #3640; time 18 hr.
One may read the Inhibition as how much of the control response was suppressed. Lower therefore signals a response near the control. In turn, `Cc1ccc(C)c(OCCCC(C)(C)C(=O)O)c1` [GEMFIBROZIL] returned an Inhibition of 4.27%. On to `CC(=O)O[C@H]1C[C@@H]2CC[C@@H]3[C@H](CC[C@@]4(C)[C@H]3C[C@H]([N+]3(C)CCCCC3)[C@@H]4OC(C)=O)[C@@]2(C)C[C@@H]1N1CCCCC1.[Br-]` [VECURONIUM BROMIDE], for which the Inhibition worked out at 6.77%. As to `COCCOC(=O)C1=C(C)NC(C)=C(C(=O)OC(C)C)C1c1cccc([N+](=O)[O-])c1` (stereo not drawn) [NIMODIPINE], the Inhibition amounted to 19.21%. In the case of `CCN(CC)CC1CCCCN1CC(=O)N1c2ccccc2C(=O)Nc2cccnc21` (stereo not drawn) [OTENZEPAD], the Inhibition turned out to be 36.09%.

Regarding `Cc1ccc(O)c([C@H](CCN(C(C)C)C(C)C)c2ccccc2)c1.O=C(O)C(O)C(O)C(=O)O` [TOLTERODINE TARTRATE], the Inhibition is 10.33%. In turn, `C[C@@H]1O[C@@H](OC[C@H]2O[C@@H](Oc3c(-c4ccc(O)c(O)c4)oc4cc(O)cc(O)c4c3=O)[C@H](O)[C@@H](O)[C@@H]2O)[C@H](O)[C@H](O)[C@H]1O` [RUTIN] registered an Inhibition of 17.85%. In turn, `CC(=O)/N=c1/sc(S(N)(=O)=O)nn1C` [METHAZOLAMIDE] came in with an Inhibition of 8.55%. The molecule `CCCc1nc2c(C)cc(-c3nc4ccccc4n3C)cc2n1Cc1ccc(-c2ccccc2C(=O)O)cc1` registered an Inhibition of 38.9%. Under `C[C@]12CCC(=O)C=C1CC[C@@H]1[C@@H]2[C@@H](O)C[C@@]2(C)[C@H]1CC[C@]2(O)C(=O)COC(=O)CCC(=O)O` [HYDROCORTISONE HEMISUCCINATE ANHYDROUS] stands 18.29%; under `CC(C)(C)NCC(O)COc1cccc2c1CC(O)C(O)C2` (stereo not drawn) [NADOLOL], 21.21%; under `CC(=O)NCCCCCCNC(C)=O` [HEXAMETHYLENEBISACETAMIDE], 3.02%.

On to `Cc1nccn1CC1CCc2c(c3ccccc3n2C)C1=O` (stereo not drawn) [ONDANSETRON], for which the Inhibition was 13.9%. Then `CCCNC(C)C(=O)Nc1ccccc1C.Cl` (stereo not drawn) [PRILOCAINE HYDROCHLORIDE], with 14.94%; and `CN1CCCC(n2nc(Cc3ccc(Cl)cc3)c3ccccc3c2=O)CC1.Cl` (stereo not drawn) [AZELASTINE HYDROCHLORIDE], with 4.91%; and `Nc1nnc(-c2cccc(Cl)c2Cl)c(N)n1` [LAMOTRIGINE], with 7.8%. In turn, `O=c1c(-c2ccccc2)c1-c1ccccc1` [DIPHENCYPRONE] registered an Inhibition of 1.62%. For the molecule `CC(C)(C)NC(=O)[C@@H]1CN(Cc2cccnc2)CCN1C[C@@H](O)C[C@@H](Cc1ccccc1)C(=O)N[C@H]1c2ccccc2C[C@H]1O.O=S(=O)(O)O` [INDINAVIR SULFATE], the Inhibition stood at 7.97%. Take `CC(C)(C)NCC(O)c1ccc(O)c(CO)c1.CC(C)(C)NCC(O)c1ccc(O)c(CO)c1.O=S(=O)(O)O` (stereo not drawn) [ALBUTEROL SULFATE]: the Inhibition turned out to be 17.29%.

On to `CCN1CCC[C@H]1CNC(=O)c1cc(S(N)(=O)=O)ccc1OC` [LEVOSULPIRIDE], for which the Inhibition worked out at 6.68%. Then `NC(=O)c1cccnc1` [NIACINAMIDE], with 14.85%; and `CCCc1nc(C(C)(C)O)c(C(=O)OCc2oc(=O)oc2C)n1Cc1ccc(-c2ccccc2-c2nnn[nH]2)cc1` [OLMESARTAN MEDOXOMIL], with 33.73%; and `CC(=O)[C@@]1(O)CC[C@H]2[C@@H]3C[C@H](C)C4=CC(=O)CC[C@]4(C)[C@H]3CC[C@@]21C`, with 27.35%. Consider `CCCC1O[C@@H]2C[C@H]3[C@@H]4CCC5=CC(=O)C=C[C@]5(C)[C@H]4[C@@H](O)C[C@]3(C)[C@]2(C(=O)CO)O1` (stereo partly drawn) [BUDESONIDE], for which the Inhibition was 4.71%. Take `CC1(C)O[C@@H]2C[C@H]3[C@@H]4C[C@H](F)C5=CC(=O)C=C[C@]5(C)[C@H]4[C@@H](O)C[C@]3(C)[C@]2(C(=O)CO)O1` [FLUNISOLIDE]: the Inhibition was found to be 20.61%. With `CC(C)(C)C(O)/C=C/c1ccc2c(c1)OCO2` (stereo not drawn) [STIRIPENTOL], the Inhibition turned out to be 8.01%. Then `C[C@]12CC[C@@H]3c4ccc(O)cc4CC[C@H]3[C@@H]1CC[C@@H]2O` [ESTRADIOL], with 2.47%. Then `COc1ccc2cc([C@H](C)C(=O)[O-])ccc2c1.[Na+]` [NAPROXEN SODIUM], with 12.66%. Molecule `CC(=O)O.NCc1ccc(S(N)(=O)=O)cc1` [MAFENIDE ACETATE] had an Inhibition of 13.6%. Turning to `C=C1/C(=C\C=C2/CCC[C@]3(C)[C@@H]([C@H](C)/C=C/[C@@H](O)C4CC4)CC[C@@H]23)C[C@@H](O)C[C@@H]1O` [CALCIPOTRIENE], the Inhibition is recorded as 13.54%. Then `C[C@H]1O[C@@H](O[C@H]2[C@@H](O)C[C@H](O[C@H]3[C@@H](O)C[C@H](O[C@H]4CC[C@@]5(C)[C@H](CC[C@@H]6[C@@H]5C[C@@H](O)[C@]5(C)C(C7=CC(=O)OC7)CC[C@]65O)C4)O[C@@H]3C)O[C@@H]2C)C[C@H](O)[C@@H]1O` (stereo partly drawn), with 8.24%; and `CN(C)CC[C@@H](c1ccc(Cl)cc1)c1ccccn1.O=C(O)/C=C\C(=O)O` [DEXCHLORPHENIRAMINE MALEATE], with 16.81%.

With `CCc1ccc(CCOc2ccc(CC3SC(=O)NC3=O)cc2)nc1.Cl` (stereo not drawn) [PIOGLITAZONE HYDROCHLORIDE], the Inhibition is 8.48%. Then `CS(=O)(=O)O.Cc1ccc(NC(=O)c2ccc(CN3CCN(C)CC3)cc2)cc1Nc1nccc(-c2cccnc2)n1` [IMATINIB MESYLATE], with 14.33%; and `CCCC(CCC)C(=O)O` [VALPROIC ACID], with 13.05%; and `COC1=CC(=O)C[C@@H](C)[C@]12Oc1c(Cl)c(OC)cc(OC)c1C2=O` [GRISEOFULVIN], with 21.48%. In turn, `COc1cc(N)c(Cl)cc1C(=O)N[C@@H]1CCN(CCCOc2ccc(F)cc2)C[C@@H]1OC.O` [(R,S)-CISAPRIDE MONOHYDRATE] displayed an Inhibition of 6.11%. Consider `CC1(C)O[C@@H]2[C@@H](CO[C@@]3(COS(N)(=O)=O)OC(C)(C)O[C@@H]23)O1` [TOPIRAMATE], for which the Inhibition came to 14.21%. Under `CCOC(=O)C1=C(C)NC(C)=C(C(=O)OC)C1c1cccc([N+](=O)[O-])c1` (stereo not drawn) [NITRENDIPINE] stands 7.78%. Then `CC[C@H](C)C(=O)O[C@H]1C[C@@H](C)C=C2C=C[C@H](C)[C@H](CC[C@@H]3C[C@@H](O)CC(=O)O3)[C@H]21` [LOVASTATIN], with 18.99%. Then `NS(=O)(=O)c1cc2c(cc1C(F)(F)F)NC(Cc1ccccc1)NS2(=O)=O` (stereo not drawn) [BENDROFLUMETHIAZIDE], with 4.02%; and `CC(O)CO.N[C@@H](C(=O)N[C@@H]1C(=O)N2C(C(=O)O)=C(CSc3c[nH]nn3)CS[C@H]12)c1ccc(O)cc1`, with 36.53%. As to `Cl.Nc1nc2ccc(OC(F)(F)F)cc2s1`, the Inhibition came out at 16.88%. Under `CCN1CCCC1CNC(=O)c1cc(S(=O)(=O)CC)c(N)cc1OC` (stereo not drawn) [AMISULPRIDE] stands 24.74%; under `C/C=C1/[C@H]2C=C(C)C[C@]1(N)c1ccc(O)nc1C2`, 13.6%. The molecule `CC(C)c1nc(CN(C)C(=O)N[C@H](C(=O)N[C@@H](Cc2ccccc2)C[C@H](O)[C@H](Cc2ccccc2)NC(=O)OCc2cncs2)C(C)C)cs1` [RITONAVIR] displayed an Inhibition of 15.52%. Under `Cl.O.OC[C@H]1O[C@@H](n2cnc3c(N[C@H]4CCC[C@@H]4O)ncnc32)[C@@H](O)C1O` (stereo partly drawn) stands 12.03%; under `CC(C)[C@H]1CC[C@H](C(=O)N[C@H](Cc2ccccc2)C(=O)O)CC1` [NATEGLINIDE], 11.33%; under `COc1nc(C)nc(Cl)c1NC1=NCCN1.Cl` [MOXONIDINE HYDROCHLORIDE], 5.26%. Then `CN1CCC(=C2c3ccccc3CCc3sccc32)CC1.O=C(O)/C=C\C(=O)O`, with 21.61%; and `CCOC(=O)C1=C(C)NC(C)=C(C(=O)OC)C1c1cccc(Cl)c1Cl` (stereo not drawn) [FELODIPINE], with 12.75%. Then `O=C([O-])Cc1ccccc1Nc1c(Cl)cccc1Cl.[Na+]` [DICLOFENAC SODIUM], with 8.93%.

`CC(=O)OCC(=O)[C@@]1(O)CC[C@H]2[C@@H]3C[C@H](C)C4=CC(=O)C=C[C@]4(C)[C@H]3[C@@H](O)C[C@@]21C` [METHYLPREDNISOLONE ACETATE] gave an Inhibition of 10.61%.

In the case of `CCCCC(=O)N(Cc1ccc(-c2ccccc2-c2nnn[nH]2)cc1)[C@H](C(=O)O)C(C)C`, the Inhibition is 30.1%. Then `CNNCc1ccc(C(=O)NC(C)C)cc1.Cl` [PROCARBAZINE HYDROCHLORIDE], with 14.26%.

`CC[N+](C)(CC)CCOC(=O)C(O)(c1ccccc1)C1CCCCC1.[Br-]` (stereo not drawn) [OXYPHENONIUM BROMIDE] registered an Inhibition of 14.05%.

In the case of `CC(C(=O)[O-])c1ccc(CC2CCCC2=O)cc1.[Na+]` (stereo not drawn) [LOXOPROFEN SODIUM], the Inhibition was found to be 2.03%. Then `CN(C)[C@@H]1C(=O)C(C(=O)NCN2CCCC2)=C(O)[C@@]2(O)C(O)=C3C(=O)c4c(O)cccc4[C@@](C)(O)C3CC12` (stereo partly drawn), with 20.32%; and `O=C1Nc2ccc(Cl)cc2[C@@](C#CC2CC2)(C(F)(F)F)O1` [EFAVIRENZ], with 7.84%; and `C=C[C@H]1CN2CC[C@H]1C[C@@H]2[C@@H](O)c1ccnc2ccc(OC)cc12` [QUINIDINE], with 8.31%.

As for `O=S(=O)([O-])CCS.[Na+]` [MESNA], the Inhibition is 6.26%.

Regarding `C[C@H](CS)C(=O)N1CCC[C@H]1C(=O)O` [CAPTOPRIL], the Inhibition amounted to 11.48%. Under `CC(C)(C)NC[C@H](O)COc1nsnc1N1CCOCC1.O=C(O)/C=C\C(=O)O` [TIMOLOL MALEATE] stands 7.23%; under `Cn1nnc2c(C(N)=O)ncn2c1=O` [TEMOZOLOMIDE], 16.54%.
